Experimental data reported in PubChem BioAssay AID504444 (National Center for Advancing Translational Sciences (NCATS), 2011).
Hit rate of the full screen: of about 360,000 compounds, about 7,500 (2.1%) were called active. This list was built around the results that the source calls inconclusive (neither active nor inactive); the mix of calls is not that of the screen. Calls follow the shape of the dose curve; as a rule, active = well fitted inhibition curve with a large enough effect; inconclusive = small, poorly fitted or top-dose-only effect, or effect the other way; inactive = flat fitted curve, though single readings scatter. Where the call is inconclusive, the potency comes from a doubtful curve fit.

Test: Nrf2 qHTS screen for inhibitors; also: nearly all actives have a fitted effect of over 60% in size
Settings: A549 ARE-Fluc reporter, luciferase luminescence, 18-24 h; activity change, negative = inhibition: at 46 µM (top of the series)
How it was run: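 A549 ARE_Fluc cells (5000/well, 5% FBS OPTI-MEM) pre-incubated 2 h, then treated with compounds 18-24 h at 37C/5% CO2 in concentration-response. CellTiter-Fluor viability read first; BugLite luciferase luminescence after 15 min at room temperature gives Nrf2 activity.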
% is scaled to controls: 0 for no effect and ±100 for the full control effect; potency is read from the fitted curve at half-maximal effect.

Row | SMILES | activity change, negative = inhibition | Potency
1 | Clc1cc(/C=N\NC2=NCCN2)cc(Cl)n1 | inactive: 1.5% | 
2 | Cc1nn(CCCC(=O)Nc2cccc(F)c2)c(=O)c2c1sc1ccccc12 |  | active: 2.59 µM
3 | Cc1ccc(C(=O)NC(=S)NNC(=O)COc2ccc([N+](=O)[O-])cc2)cc1 | inactive: -5.32% | 
4 | CC(=O)c1c(O)cc(O)c(C(C)=O)c1O |  | inconclusive: 25.9 µM [falling, single point]
5 | CCCC(=O)NC(c1ccccc1Cl)c1ccc2cccnc2c1O (stereo not given) |  | inconclusive: 20.6 µM [falling, partial curve, poor fit]
6 | COc1ccc(NC(=O)COC(=O)Cc2coc3cc(OC)ccc23)c(OC)c1 |  | inconclusive: 5.17 µM [activator, full curve, poor fit]
7 | CCOCCCn1c(SCC(=O)N2CCOCC2)nc2ccccc2c1=O |  | inconclusive: 32.6 µM [falling, single point]
8 | COc1cccc(Nc2nnc(SCn3nnc4ccccc4c3=O)s2)c1 |  | inconclusive: 1.16 µM [activator, full curve, poor fit]
9 | Cc1ccc2nc(C)c(C(=O)N/N=C/c3ccc(N4CCOCC4)cc3)cc2c1 |  | inconclusive: 29.1 µM [falling, single point]
10 | Cc1ccc(C(=O)NNC(=O)c2ccc(SCC3CCCO3)c([N+](=O)[O-])c2)cc1 (stereo not given) |  | inconclusive: 20.6 µM [falling, single point]
11 | Cc1ccc(C(=O)N2CCCC(CCC(=O)N3CCN(c4ccccn4)CC3)C2)cc1C (stereo not given) |  | inconclusive: 23.1 µM [falling, single point]
12 | Cc1nc(N2CCOCC2)c2c(C)c(C(=O)Nc3ccccc3Cl)sc2n1 | inactive: 3.04% | 
13 | CN(C)c1ccc(CCc2ccc(N)cc2)cc1 |  | inconclusive: 25.9 µM [falling, single point]
14 | CCOC(=O)C(=NC1CCCCC1)NNc1cccc(C(F)(F)F)c1 | inactive: -10.4% | 
15 | Clc1cnc(N/N=C/c2ccco2)c(Cl)c1 |  | inconclusive: 7.31 µM [activator, partial curve]
16 | Cc1nn(-c2ccccc2)c2c1C(O)CC(C)(C)C2 (stereo not given) | inactive: -0.42% | 
17 | COC(=O)c1cccc(C23CC4(C2)[C@H](CN(Cc2ccc(C(F)(F)F)cc2)[C@@H]4c2ccccc2)C3c2ccc(C(F)(F)F)cc2)c1 (stereo not given in full) |  | inconclusive: 18.4 µM [falling, partial curve]
18 | COc1cc(Oc2nc(C(F)(F)F)nc3ccccc23)ccc1C=O | inactive: 4.73% | 
19 | O=C(NCc1ccc(F)cc1)c1ccc(S(=O)(=O)Nc2cccc(C(F)(F)F)c2)cc1 |  | active: 23.1 µM
20 | Cc1noc(C)c1COc1ccc(C(=O)N2CC(C)CC(C)C2)cc1 (stereo not given) |  | inconclusive: 20.6 µM [falling, single point]

Taken from above.
For Potency, CCCC(=O)NC(c1ccccc1Cl)c1ccc2cccnc2c1O (stereo not given) has inconclusive: 20.6 µM [falling, partial curve, poor fit]
For Potency, CC(=O)c1c(O)cc(O)c(C(C)=O)c1O has inconclusive: 25.9 µM [falling, single point]
